# Assay results as given in the supplement of paper PMC11438910.
# This is one part of the list. The signal is at background level for most entries.
# Key:
# Experiment in all cases: fluorescence intensity of antibody binding to polysaccharide-coupled beads; higher = stronger binding
# [1] = target: pneumococcal polysaccharide Pn6A
# [2] = target: pneumococcal polysaccharide Pn6B
# [3] = target: pneumococcal polysaccharide Pn6C
# [4] = target: pneumococcal polysaccharide Pn6D
# [5] = target: pneumococcal polysaccharide Pn7A
# [6] = target: pneumococcal polysaccharide Pn7B
# [7] = target: pneumococcal polysaccharide Pn7C
# [8] = target: pneumococcal polysaccharide Pn7F
# [9] = target: pneumococcal polysaccharide Pn8
# [10] = target: pneumococcal polysaccharide Pn9A
# [11] = target: pneumococcal polysaccharide Pn9L
# [12] = target: pneumococcal polysaccharide Pn9N
# [13] = antibody concentration 81.7561 ng/mL
# [14] = antibody concentration 437.17 ng/mL
# [15] = antibody concentration 2337.65 ng/mL
# [16] = antibody concentration 12500 ng/mL
# [17] = antibody concentration 0.1 ng/mL
# [18] = antibody concentration 0.534724 ng/mL
# [19] = antibody concentration 2.8593 ng/mL
# [20] = antibody concentration 15.2894 ng/mL
binder,measurement,setting,value
4-173.3 (protein) chain 1: QLQLQESGPGLVKPSETLSLTCAVSGGSINNNYWSWIRQPPGKGLEWIGRIFGSGGSTDYNPSLKSRVTISTDTSKTQFSLNLNSVTAADTAVYFCARGSYQVDYWGQGVLVTVSS chain 2: QAALTQPPSMSGSPGQSVTISCTGTSSDIGGWNRVSWYQQYPGKAPKLMIYEVSKRPSGVSDRFSGSKSGNTASLTISGLQAEDEADYYCSSYVHINNALFGGGTRLTVL,fluorescence intensity,[1]; [13],20.5 MFI
same,fluorescence intensity,[1]; [14],23 MFI
same,fluorescence intensity,[1]; [15],25.5 MFI
same,fluorescence intensity,[1]; [16],36 MFI
same,fluorescence intensity,[2]; [17],18.5 MFI
same,fluorescence intensity,[2]; [18],17.5 MFI
same,fluorescence intensity,[2]; [19],20 MFI
same,fluorescence intensity,[2]; [20],17 MFI
same,fluorescence intensity,[2]; [13],17.5 MFI
same,fluorescence intensity,[2]; [14],18.5 MFI
same,fluorescence intensity,[2]; [15],21.5 MFI
same,fluorescence intensity,[2]; [16],33 MFI
same,fluorescence intensity,[3]; [17],17 MFI
same,fluorescence intensity,[3]; [18],43 MFI
same,fluorescence intensity,[3]; [19],77.2 MFI
same,fluorescence intensity,[3]; [20],53.8 MFI
same,fluorescence intensity,[3]; [14],71.5 MFI
same,fluorescence intensity,[3]; [15],83 MFI
same,fluorescence intensity,[3]; [16],108 MFI
same,fluorescence intensity,[4]; [17],14.5 MFI
same,fluorescence intensity,[4]; [18],16.5 MFI
same,fluorescence intensity,[4]; [19],16.5 MFI
same,fluorescence intensity,[4]; [20],18.2 MFI
same,fluorescence intensity,[4]; [13],16.5 MFI
same,fluorescence intensity,[4]; [14],17.5 MFI
same,fluorescence intensity,[4]; [15],18 MFI
same,fluorescence intensity,[4]; [16],23.5 MFI
same,fluorescence intensity,[5]; [17],20.5 MFI
same,fluorescence intensity,[5]; [18],18.5 MFI
same,fluorescence intensity,[5]; [19],19 MFI
same,fluorescence intensity,[5]; [20],18.5 MFI
same,fluorescence intensity,[5]; [13],20 MFI
same,fluorescence intensity,[5]; [14],20.2 MFI
same,fluorescence intensity,[5]; [15],26 MFI
same,fluorescence intensity,[5]; [16],107 MFI
same,fluorescence intensity,[6]; [17],17 MFI
same,fluorescence intensity,[6]; [18],17.5 MFI
same,fluorescence intensity,[6]; [19],15 MFI
same,fluorescence intensity,[6]; [20],15.5 MFI
same,fluorescence intensity,[6]; [13],14.8 MFI
same,fluorescence intensity,[6]; [14],15 MFI
same,fluorescence intensity,[6]; [15],17 MFI
same,fluorescence intensity,[6]; [16],31.5 MFI
same,fluorescence intensity,[7]; [17],14.8 MFI
same,fluorescence intensity,[7]; [18],16.8 MFI
same,fluorescence intensity,[7]; [19],17 MFI
same,fluorescence intensity,[7]; [20],15.2 MFI
same,fluorescence intensity,[7]; [13],14 MFI
same,fluorescence intensity,[7]; [14],14.8 MFI
same,fluorescence intensity,[7]; [15],17 MFI
same,fluorescence intensity,[7]; [16],28 MFI
same,fluorescence intensity,[8]; [17],13 MFI
same,fluorescence intensity,[8]; [18],14.8 MFI
same,fluorescence intensity,[8]; [19],13.5 MFI
same,fluorescence intensity,[8]; [20],14.5 MFI
same,fluorescence intensity,[8]; [13],14.5 MFI
same,fluorescence intensity,[8]; [14],15.5 MFI
same,fluorescence intensity,[8]; [15],22.2 MFI
same,fluorescence intensity,[8]; [16],72.5 MFI
same,fluorescence intensity,[9]; [17],20 MFI
same,fluorescence intensity,[9]; [18],20 MFI
same,fluorescence intensity,[9]; [19],20 MFI
same,fluorescence intensity,[9]; [20],20.5 MFI
same,fluorescence intensity,[9]; [13],22.2 MFI
same,fluorescence intensity,[9]; [14],23 MFI
same,fluorescence intensity,[9]; [15],26.5 MFI
same,fluorescence intensity,[9]; [16],42.8 MFI
same,fluorescence intensity,[10]; [17],20.5 MFI
same,fluorescence intensity,[10]; [18],20 MFI
same,fluorescence intensity,[10]; [19],17.5 MFI
same,fluorescence intensity,[10]; [20],19.5 MFI
same,fluorescence intensity,[10]; [13],18.2 MFI
same,fluorescence intensity,[10]; [14],20 MFI
same,fluorescence intensity,[10]; [15],21 MFI
same,fluorescence intensity,[10]; [16],35.5 MFI
same,fluorescence intensity,[11]; [17],16.2 MFI
same,fluorescence intensity,[11]; [18],17 MFI
same,fluorescence intensity,[11]; [19],16.5 MFI
same,fluorescence intensity,[11]; [20],16 MFI
same,fluorescence intensity,[11]; [13],15.5 MFI
same,fluorescence intensity,[11]; [14],16.5 MFI
same,fluorescence intensity,[11]; [15],18 MFI
same,fluorescence intensity,[11]; [16],28.5 MFI
same,fluorescence intensity,[12]; [17],17.5 MFI
same,fluorescence intensity,[12]; [18],16 MFI
same,fluorescence intensity,[12]; [19],14 MFI
same,fluorescence intensity,[12]; [20],14.5 MFI
same,fluorescence intensity,[12]; [13],15 MFI
same,fluorescence intensity,[12]; [14],14.5 MFI
same,fluorescence intensity,[12]; [15],16 MFI

# Retrieved one by one from the entries so far:
binder,measurement,setting,value
4-173.3 (protein) chain 1: QLQLQESGPGLVKPSETLSLTCAVSGGSINNNYWSWIRQPPGKGLEWIGRIFGSGGSTDYNPSLKSRVTISTDTSKTQFSLNLNSVTAADTAVYFCARGSYQVDYWGQGVLVTVSS chain 2: QAALTQPPSMSGSPGQSVTISCTGTSSDIGGWNRVSWYQQYPGKAPKLMIYEVSKRPSGVSDRFSGSKSGNTASLTISGLQAEDEADYYCSSYVHINNALFGGGTRLTVL,fluorescence intensity,[4]; [17],14.5 MFI
same,fluorescence intensity,[9]; [20],20.5 MFI
same,fluorescence intensity,[1]; [15],25.5 MFI
